Reference: patent publication US5190921A, “Amino acids and peptides having a modified tyrosine residue, their preparation and their application as medicaments” (Institut National de la Sante et de la Recherche Medicale …, priority 1988, dated 1993)
At least one structure is not confirmed: it was looked up by name or label, or the drawing left a doubt. Where a SMILES comes first, the peptide text is derived from it. [ ]: non-standard residue; d: D form. The star is where a group is joined. X1 = CCCC[C@@H](NC(=O)CC(=O)*)NC(=O)[C@H](Cc1ccc(CS(=O)(=O)O)cc1)NC(C)=O; sY = N[C@@H](Cc1ccc(OS(=O)(=O)O)cc1)C(=O)O; NMeNle = CCCC[C@H](NC)C(=O)O; Nle = CCCC[C@H](N)C(=O)O; Boc = CC(C)(C)OC(=O)*

What was measured:
[1] = molecular target: T1, peripheral CCK receptors (type A), guinea pig pancreatic membranes (Cavia porcellus, UniProt Q63931); assay: Binding test, competition with (3H)-propionyl-CCK8 on guinea pig pancreatic membranes; settings: (3H)-propionyl-CCK8 at 0.1 nM; mean ± s.e.m. of three experiments in triplicate
T1 construct: on cortex and pancreatic membranes of the guinea pig; from tissue; host or cells: guinea pig pancreatic membranes
T1 sequence (Q63931 1-430): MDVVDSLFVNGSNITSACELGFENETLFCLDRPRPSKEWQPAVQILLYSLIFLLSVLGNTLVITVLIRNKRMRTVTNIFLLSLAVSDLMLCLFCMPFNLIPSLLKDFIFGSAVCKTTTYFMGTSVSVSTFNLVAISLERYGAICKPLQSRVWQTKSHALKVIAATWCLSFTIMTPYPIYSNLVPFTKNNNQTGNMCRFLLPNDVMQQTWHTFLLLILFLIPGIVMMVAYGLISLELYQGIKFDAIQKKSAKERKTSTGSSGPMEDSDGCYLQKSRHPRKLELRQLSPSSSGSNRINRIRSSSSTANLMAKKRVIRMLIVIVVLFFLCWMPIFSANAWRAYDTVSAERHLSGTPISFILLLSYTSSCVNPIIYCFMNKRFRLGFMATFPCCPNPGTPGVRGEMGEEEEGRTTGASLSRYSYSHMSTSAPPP

[2] = molecular target: T2, central CCK receptors (type B), guinea pig cortex membranes (Cavia porcellus, UniProt H0VZC5); assay: Binding test, competition with (3H)-propionyl-CCK8 on guinea pig cortex membranes; settings: (3H)-propionyl-CCK8 at 0.2 nM; mean ± s.e.m. of three experiments in triplicate
T2 construct: on cortex and pancreatic membranes of the guinea pig; from tissue; host or cells: guinea pig brain cortex membranes
T2 sequence (H0VZC5 1-426): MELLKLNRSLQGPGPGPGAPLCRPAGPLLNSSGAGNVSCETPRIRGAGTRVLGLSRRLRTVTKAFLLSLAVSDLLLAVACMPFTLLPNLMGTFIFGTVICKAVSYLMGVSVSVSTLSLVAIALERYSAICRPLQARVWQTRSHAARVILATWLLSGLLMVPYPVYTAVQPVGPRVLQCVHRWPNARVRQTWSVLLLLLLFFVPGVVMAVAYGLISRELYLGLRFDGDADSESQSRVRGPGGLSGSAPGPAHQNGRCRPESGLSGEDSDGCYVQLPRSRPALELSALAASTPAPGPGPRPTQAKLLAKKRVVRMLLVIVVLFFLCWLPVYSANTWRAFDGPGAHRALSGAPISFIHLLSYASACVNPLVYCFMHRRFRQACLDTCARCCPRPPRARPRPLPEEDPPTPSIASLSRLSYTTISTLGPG

SMILES	Ki [1]	Ki [2]
CCCC[C@@H](NC(=O)CC(=O)N[C@@H](Cc1c[nH]c2ccccc12)C(=O)N(C)[C@@H](CCCC)C(=O)N[C@@H](CC(=O)O)C(=O)N[C@@H](Cc1ccccc1)C(N)=O)NC(=O)[C@H](Cc1ccc(OS(=O)(=O)O)cc1)NC(=O)OC(C)(C)C [Example 15, Boc-Tyr(SO3 Na)-gNle-mGly-Trp-(N-Me)Nle-Asp(Na)-Phe-NH2]	1.06 nM	0.11 nM
CCCC[C@H](NC(=O)[C@H](Cc1ccc(OS(=O)(=O)O)cc1)NC(=O)OC(C)(C)C)C(=O)NCC(=O)N[C@@H](Cc1c[nH]c2ccccc12)C(=O)N(C)[C@@H](CCCC)C(=O)N[C@@H](CC(=O)O)C(=O)N[C@@H](Cc1ccccc1)C(N)=O [Example 16, Boc-Tyr(SO3 Na)-Nle-Gly-Trp-(N-Me)Nle-Asp(Na)-Phe-NH2] (Boc-[sY][Nle]GW[NMeNle]DF-NH2)	78 nM	0.15 nM
CCCC[C@@H](NC(=O)CC(=O)N[C@@H](Cc1c[nH]c2ccccc12)C(=O)N(C)[C@@H](CCCC)C(=O)N[C@@H](CC(=O)O)C(=O)N[C@@H](Cc1ccccc1)C(N)=O)NC(=O)[C@H](Cc1ccc(CS(=O)(=O)O)cc1)NC(C)=O [Example 18, Ac-L-Phe(p-CH2 SO3 Na)-gNle-mGly-Trp-(N-Me)Nle-Asp-Phe-NH2] (X1-W[NMeNle]DF-NH2)	93 nM	1.3 nM
